Reference: publication PMC4470917
No constants are given. Whether binding was seen depends on the method and setting. Some entries that bind do so weakly or less than the wild type.

The chains behind the UniProt entries cited, without tags or fusion partners.
UniProt P00563: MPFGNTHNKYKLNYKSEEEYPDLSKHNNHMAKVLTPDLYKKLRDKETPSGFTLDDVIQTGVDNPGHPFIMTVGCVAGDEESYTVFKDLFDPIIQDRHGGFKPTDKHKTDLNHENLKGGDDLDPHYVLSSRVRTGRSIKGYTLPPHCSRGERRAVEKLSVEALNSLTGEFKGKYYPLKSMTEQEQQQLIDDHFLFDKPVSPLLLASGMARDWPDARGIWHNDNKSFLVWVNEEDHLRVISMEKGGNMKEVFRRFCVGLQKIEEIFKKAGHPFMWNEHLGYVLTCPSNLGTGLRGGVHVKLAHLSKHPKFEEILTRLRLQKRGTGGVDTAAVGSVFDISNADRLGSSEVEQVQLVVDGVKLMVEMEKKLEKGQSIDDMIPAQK
UniProt P05120: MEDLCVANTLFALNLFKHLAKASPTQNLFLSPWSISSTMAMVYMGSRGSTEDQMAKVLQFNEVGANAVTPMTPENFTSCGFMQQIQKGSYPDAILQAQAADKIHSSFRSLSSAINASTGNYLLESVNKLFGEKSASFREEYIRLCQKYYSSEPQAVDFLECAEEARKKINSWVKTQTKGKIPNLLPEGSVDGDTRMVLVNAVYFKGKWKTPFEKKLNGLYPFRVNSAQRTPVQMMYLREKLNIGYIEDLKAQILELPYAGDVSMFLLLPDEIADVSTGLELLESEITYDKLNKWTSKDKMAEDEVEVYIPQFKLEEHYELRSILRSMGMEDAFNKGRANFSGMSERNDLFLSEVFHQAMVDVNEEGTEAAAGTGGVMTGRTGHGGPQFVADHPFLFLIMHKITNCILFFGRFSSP

Tests used:
[1] = biological target: creatine phosphokinase (CPK) (UniProt P00563); assay: condition: only native CPK (4°C control); SerpinB2 6.25–250 μg.ml^-1, 1.3 nM–5.3 μM; ELISA; native control protein on the plate (CPK or CS overnight at 4°C; BSA overnight at 37°C without DTT); serial dilution of SerpinB2 (6.25–250 μg.ml^-1), 1.5 h at 37°C; antibody detection; both purified
[2] = biological target: creatine phosphokinase (CPK) (UniProt P00563); assay: ELISA; stressed protein on the plate (CPK or CS overnight at 43°C; BSA overnight at 37°C with 20 mM DTT, then 5 mM iodoacetic acid); serial dilution of SerpinB2 (6.25–250 μg.ml^-1), 1.5 h at 37°C; antibody detection; both purified
[3] = biological target: T1, porcine citrate synthase (CS) (porcine) (UniProt P00889); assay: as above
T1 sequence: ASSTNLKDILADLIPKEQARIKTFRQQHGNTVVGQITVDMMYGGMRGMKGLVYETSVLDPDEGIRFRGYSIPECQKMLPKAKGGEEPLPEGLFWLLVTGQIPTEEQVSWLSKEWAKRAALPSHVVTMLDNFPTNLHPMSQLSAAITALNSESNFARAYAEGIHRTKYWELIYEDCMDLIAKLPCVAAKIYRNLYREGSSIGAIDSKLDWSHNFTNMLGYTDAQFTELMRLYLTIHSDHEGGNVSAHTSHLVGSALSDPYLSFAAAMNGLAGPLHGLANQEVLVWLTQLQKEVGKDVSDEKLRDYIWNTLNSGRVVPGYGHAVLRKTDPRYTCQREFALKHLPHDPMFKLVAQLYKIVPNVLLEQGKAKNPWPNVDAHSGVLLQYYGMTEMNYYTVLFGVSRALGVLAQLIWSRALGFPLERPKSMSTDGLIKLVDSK

[4] = biological target: T1, porcine citrate synthase (CS) (porcine); assay: ELISA; native control protein on the plate (CPK or CS overnight at 4°C; BSA overnight at 37°C without DTT); serial dilution of SerpinB2 (6.25–250 μg.ml^-1), 1.5 h at 37°C; antibody detection; both purified

## Recombinant human SerpinB2 (47 kDa) (from UniProt P05120 1-415)
[1]
  binding: no binding
[2]
  binding: binds
[3]
  binding: binds weakly
[4]
  binding: binds weakly
